{
  "source": "patent US20100016242A1",
  "about": "“MYOSIN LIGHT CHAIN KINASE INHIBITORS AND METHODS OF USE” (THE UNIVERSITY OF CHICAGO, priority 2004, published 2010)",
  "system": "JM109 lab strain E. coli",
  "assay": "bacterial growth in liquid culture, optical density at 600 nm",
  "type": "cell-based",
  "note": "At least one peptide structure holds a part that was inferred or is arguable (an end, a ring closure or a residue).",
  "data": [
    {"substance": "Ac-RKKYKYRRK-NH2 [PIK, Arg-Lys-Lys-Tyr-Lys-Tyr-Arg-Arg-Lys]", "values": [
      {"measurement": "inhibition of bacterial growth / bactericidal action, compared with D-PIK(reversed)", "value": "found to function in a similar manner"}
    ]}
  ]
}
